Assay results taken from publication doi:10.64898/2025.12.17.695032.
These are yes or no findings as the source states them, for the method shown. In cells and extracts the contact can be indirect. Binding calls can cover weak binding; strength is not graded here. Sequences can lack the tags named with a protein.

By UniProt entry, the sequences of proteins in these tests, tags left out. Where a name states a change or a piece, a line headed by the entry shows the natural chain unless it says otherwise.
UniProt P01127: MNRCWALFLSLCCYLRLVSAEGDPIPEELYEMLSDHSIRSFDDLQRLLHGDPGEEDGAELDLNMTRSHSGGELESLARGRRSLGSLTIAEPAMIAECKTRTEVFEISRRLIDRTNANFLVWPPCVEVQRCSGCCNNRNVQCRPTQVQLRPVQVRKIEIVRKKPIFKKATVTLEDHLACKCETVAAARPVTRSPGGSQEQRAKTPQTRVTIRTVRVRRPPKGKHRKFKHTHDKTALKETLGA

Target: His-tagged PDGF-B (UniProt P01127)
Experiment: co-IP

B1: FLAG epitope-tagged SCUBE2 (protein, UniProt Q9NQ36 32-999)
chain: VPPGRGRAAGPQEDVDECAQGLDDCHADALCQNTPTSYKCSCKPGYQGEGRQCEDIDECGNELNGGCVHDCLNIPGNYRCTCFDGFMLAHDGHNCLDVDECLENNGGCQHTCVNVMGSYECCCKEGFFLSDNQHTCIHRSEEGLSCMNKDHGCSHICKEAPRGSVACECRPGFELAKNQRDCILTCNHGNGGCQHSCDDTADGPECSCHPQYKMHTDGRSCLEREDTVLEVTESNTTSVVDGDKRVKRRLLMETCAVNNGGCDRTCKDTSTGVHCSCPVGFTLQLDGKTCKDIDECQTRNGGCDHFCKNIVGSFDCGCKKGFKLLTDEKSCQDVDECSLDRTCDHSCINHPGTFACACNRGYTLYGFTHCGDTNECSINNGGCQQVCVNTVGSYECQCHPGYKLHWNKKDCVEVKGLLPTSVSPRVSLHCGKSGGGDGCFLRCHSGIHLSSDVTTIRTSVTFKLNEGKCSLKNAELFPEGLRPALPEKHSSVKESFRYVNLTCSSGKQVPGAPGRPSTPKEMFITVEFELETNQKEVTASCDLSCIVKRTEKRLRKAIRTLRKAVHREQFHLQLSGMNLDVAKKPPRTSERQAESCGVGQGHAENQCVSCRAGTYYDGARERCILCPNGTFQNEEGQMTCEPCPRPGNSGALKTPEAWNMSECGGLCQPGEYSADGFAPCQLCALGTFQPEAGRTSCFPCGGGLATKHQGATSFQDCETRVQCSPGHFYNTTTHRCIRCPVGTYQPEFGKNNCVSCPGNTTTDFDGSTNITQCKNRRCGGELGDFTGYIESPNYPGNYPANTECTWTINPPPKRRILIVVPEIFLPIEDDCGDYLVMRKTSSSNSVTTYETCQTYERPIAFTSRSKKLWIQFKSNEGNSARGFQVPYVTYDEDYQELIEDIVRDGRLYASENHQEILKDKKLIKALFDVLAHPQNYFKYTAQESREMFPRSFIRLLRSKVSRFLRPYK
binding: binds
